Results published in the supplement of paper PMC12889115.
The other results are listed elsewhere or left out. These are raw signals, not scaled to a control.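 Primary screen: polymyxin B was added at a level permeabilizing Salmonella outer membranes while sparing inner membranes. DMSO wells, both with and without polymyxin B, established maximum growth. Plate-to-plate variation meant each plate was ranked on its own, and the lowest-OD600 compounds were selected as hits.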

System: Salmonella enterica serovar Typhimurium SL1344
Experiment: bacterial growth OD600 after 18 h with compound and polymyxin B; higher = more bacterial growth (less inhibition)
Conditions: 50 µM, Mueller-Hinton broth

| SMILES | bacterial growth OD600 (polymyxin B 1 µg/mL) | bacterial growth OD600 (polymyxin B 0.75 µg/mL) |
| --- | --- | --- |
| COc1ccc(CN2CCN(Cc3ccc(F)cc3F)CC2CCO)c(C)c1C (stereo not drawn) | 0.915 | – |
| CCOC(=O)C1(Cc2ccccc2C(F)(F)F)CCN(C(=O)C2=C(C)OCCO2)CC1 | 1 | – |
| COc1cccc(C(C)N(C)C(=O)c2coc(COc3cccc(F)c3F)n2)c1 (stereo not drawn) | 0.471 | – |
| COC1CCN(C(=O)CC(c2cccc(O)c2)c2cccc(Cl)c2)CC1 (stereo not drawn) | 0.665 | – |
| O=C(c1ccco1)N1CCC2(CCCN(Cc3ccccc3F)C2=O)C1 (stereo not drawn) | – | 0.8 |
| O=C(/C=C/c1ccccc1)NCC1CC(Cc2ccc(F)cc2)=NO1 (stereo not drawn) | – | 0.808 |
| Cc1cc(C)c(C(=O)N2CCCC(CCc3ccccc3C)C2)c(=O)[nH]1 (stereo not drawn) | – | 0.753 |
| O=C(Nc1ccc(Oc2ccccc2)nc1)C1CCN(CCCn2cccn2)CC1 | – | 0.791 |
| Cc1ccc2c(c1)CN(Cc1c[nH]nc1-c1ccc(F)cc1)CC(C)O2 (stereo not drawn) | – | 0.891 |
| O=C(CCc1ccccc1)Nc1ccnn1C1CCN(C(=O)c2cscn2)CC1 | 0.935 | – |
| CN(Cc1cccnc1)c1ccc(-c2nc(-c3ccccc3F)no2)cn1 | 0.543 | – |
| Cc1cnc(C)c(N2CCN(C(=O)CC3C(=O)NCCN3CCC(C)C)CC2)n1 (stereo not drawn) | 1.14 | – |
| COc1cccc(-c2n[nH]c3c2CN(C(=O)c2cccnc2OC)CC3)c1 | – | 0.901 |
| COc1ccc(CN2CCOc3ccc(C(O)CCc4ccccc4)cc3C2)c(OC)c1OC (stereo not drawn) | – | 0.009 |
| O=C1CCC(CCNCCOc2ccc(F)cc2)N1Cc1ccccc1OC(F)(F)F (stereo not drawn) | – | 0.998 |
| CC(C)/C=C/CN1CCC(Oc2ccccc2C(=O)N2CCCC2)CC1 | 1.03 | – |
| Cc1nc(C)c(C(=O)N2CC[C@@H](N3CCN(c4ccccc4F)CC3)[C@H](O)C2)s1 | 0.906 | – |

| SMILES | bacterial growth OD600 (polymyxin B 1 µg/mL) | bacterial growth OD600 (polymyxin B 0.75 µg/mL) |
| --- | --- | --- |
| O=C1CCCN1CCCC(=O)N1CCCC(CCc2ccc(F)cc2F)C1 (stereo not drawn) | – | 0.792 |
| Cc1ccoc1C(=O)NC1CC(C)(C)Cc2nc(N3CCOCC3)ncc21 (stereo not drawn) | – | 0.8 |
| Cc1cnc(CNC(=O)c2coc(COc3ccccc3)n2)cn1 | – | 0.834 |
| CCOC(=O)CNC(=O)N1CCCC(C(=O)c2cccc(Cl)c2)C1 (stereo not drawn) | 0.842 | – |
| COCc1ccc([C@@H]2C[C@H]3CN(CCc4ccccc4)C(=O)[C@]34CCCN24)o1 | 0.746 | – |
| COc1ccc(-c2cnnc(NCC3CCOCC3)n2)cc1F | – | 0.358 |
| COCCN(C)C(=O)CC1(c2ccc(-c3ccccc3)cc2)CC(=O)N(C2CC2)C1=O (stereo not drawn) | – | 0.793 |
| OC(Cc1ccccc1)c1ccc2c(c1)CN(Cc1cc(F)cc(F)c1)CCO2 (stereo not drawn) | – | -0.003 |
| O=C(c1coc(COc2cccc(F)c2)n1)N1CCN2CCCC2C1 (stereo not drawn) | 0.923 | – |
| CC(=O)NCCC(=O)N1CCCC(CNC(=O)c2ccc(-c3ccccc3)cc2)C1 (stereo not drawn) | 0.957 | – |
| CCn1cc(CN(CCOC)CC2CCCN(C3Cc4ccccc4C3)C2)cn1 (stereo not drawn) | – | 0.825 |
| CN(C)c1ncc2c(n1)CCCC2NC1CCCCC1 (stereo not drawn) | – | 0.974 |
| COCC(=O)N1CCC(Oc2ccc(C(=O)NCc3cccc(SC)c3)cc2)CC1 | 0.779 | – |
| COCC1CCCCN1C(=O)c1cc(COc2ccc(F)cc2F)[nH]n1 (stereo not drawn) | – | 0.818 |
| Cc1ocnc1C(=O)NCc1cccnc1-n1cnc2ccccc21 | 1.01 | – |
| CN(Cc1cc(-c2ccccc2)[nH]n1)C(=O)Cn1nnnc1CN1CCCCCC1 | – | 0.978 |

Record cards, as listed above. Values in the order: bacterial growth OD600 (polymyxin B 1 µg/mL)	bacterial growth OD600 (polymyxin B 0.75 µg/mL)
CCOC(=O)CNC(=O)N1CCCC(C(=O)c2cccc(Cl)c2)C1 (stereo not drawn) is entered as 0.842	–
O=C(c1coc(COc2cccc(F)c2)n1)N1CCN2CCCC2C1 (stereo not drawn) is entered as 0.923	–
